Reference: publication doi:10.1101/618744
These are yes or no findings as the source states them, for the method shown. In cells and extracts the contact can be indirect. Some binding calls cover weakened binding; strength is not graded here. Where a sequence is shown, tags or fusion partners need not be part of it.

Molecular target: T1, SPINDLY (SPY), FLAG-tagged (35S::FLAG:SPY) (Arabidopsis thaliana) (UniProt Q96301)
T1 sequence: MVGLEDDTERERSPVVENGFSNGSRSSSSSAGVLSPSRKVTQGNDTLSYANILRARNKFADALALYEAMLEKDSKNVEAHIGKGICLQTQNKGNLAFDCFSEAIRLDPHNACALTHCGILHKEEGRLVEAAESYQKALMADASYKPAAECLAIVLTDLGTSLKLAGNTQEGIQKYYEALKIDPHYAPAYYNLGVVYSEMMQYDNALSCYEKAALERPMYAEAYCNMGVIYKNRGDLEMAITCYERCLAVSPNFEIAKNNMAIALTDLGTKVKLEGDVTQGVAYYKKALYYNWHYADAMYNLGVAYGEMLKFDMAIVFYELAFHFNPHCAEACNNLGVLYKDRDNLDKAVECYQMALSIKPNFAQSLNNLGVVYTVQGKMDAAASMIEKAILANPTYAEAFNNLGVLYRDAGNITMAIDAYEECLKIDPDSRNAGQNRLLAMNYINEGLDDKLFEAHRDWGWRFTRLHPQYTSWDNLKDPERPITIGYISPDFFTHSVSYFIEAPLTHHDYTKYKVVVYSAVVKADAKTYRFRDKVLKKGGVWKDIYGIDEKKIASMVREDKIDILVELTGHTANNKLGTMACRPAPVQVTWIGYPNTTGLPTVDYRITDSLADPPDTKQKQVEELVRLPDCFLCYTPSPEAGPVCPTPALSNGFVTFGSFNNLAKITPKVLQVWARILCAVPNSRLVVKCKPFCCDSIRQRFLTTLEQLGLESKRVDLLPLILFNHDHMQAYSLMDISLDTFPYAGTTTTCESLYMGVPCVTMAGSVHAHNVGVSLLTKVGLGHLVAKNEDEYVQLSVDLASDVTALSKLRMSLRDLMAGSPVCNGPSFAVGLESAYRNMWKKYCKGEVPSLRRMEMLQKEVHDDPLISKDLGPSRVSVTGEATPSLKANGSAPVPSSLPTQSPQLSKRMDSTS
Experiment: co-IP

B1: SQUAMOSA PROMOTER BINDING PROTEIN-LIKE 15 (SPL15), HA-tagged (protein, UniProt Q9M2Q6 1-354)
chain: MELLMCSGQAESGGSSSTESSSLSGGLRFGQKIYFEDGSGSRSKNRVNTVRKSSTTARCQVEGCRMDLSNVKAYYSRHKVCCIHSKSSKVIVSGLHQRFCQQCSRFHQLSEFDLEKRSCRRRLACHNERRRKPQPTTALFTSHYSRIAPSLYGNPNAAMIKSVLGDPTAWSTARSVMQRPGPWQINPVRETHPHMNVLSHGSSSFTTCPEMINNNSTDSSCALSLLSNSYPIHQQQLQTPTNTWRPSSGFDSMISFSDKVTMAQPPPISTHQPPISTHQQYLSQTWEVIAGEKSNSHYMSPVSQISEPADFQISNGTTMGGFELYLHQQVLKQYMEPENTRAYDSSPQHFNWSL
binding: binds
